Test results as given in the supplement of paper PMC8728848.
Some of the results follow.

Assays:
Test in all cases: glycan array binding signal (z-score within array); higher = stronger binding
Settings in all cases: glycan notation: IUPAC condensed, linker removed
[1] = molecular target: Gal(b1-4)GlcNAc(b1-3)Gal(b1-3)GlcNAc
Summary of the method: (§1)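 The binding signal is a Z-score computed within each array and averaged over linkers. Arrays of the same protein sequence at different concentrations or buffers were also averaged together. Data originate from 3228 arrays in the Consortium for Functional Glycomics database, kept only where the protein sequence was available.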

[2] = molecular target: Gal(b1-4)GlcNAc(b1-3)Gal(b1-4)Glc
Summary of the method: as §1

[3] = molecular target: Gal(b1-4)GlcNAc(b1-3)Gal(b1-4)GlcNAc
Summary of the method: as §1

[4] = molecular target: Gal(b1-4)GlcNAc(b1-3)Gal(b1-4)GlcNAc(b1-2)Man(a1-3)[Gal(b1-4)GlcNAc(b1-3)Gal(b1-4)GlcNAc(b1-2)Man(a1-6)]Man(b1-4)GlcNAc(b1-4)GlcNAc
Summary of the method: as §1

[5] = molecular target: Gal(b1-4)GlcNAc(b1-3)Gal(b1-4)GlcNAc(b1-2)Man(a1-3)[Gal(b1-4)GlcNAc(b1-3)Gal(b1-4)GlcNAc(b1-2)Man(a1-6)]Man(b1-4)GlcNAc(b1-4)[Fuc(a1-6)]GlcNAc
Summary of the method: as §1

[6] = molecular target: Gal(b1-4)GlcNAc(b1-3)Gal(b1-4)GlcNAc(b1-2)[Gal(b1-4)GlcNAc(b1-3)Gal(b1-4)GlcNAc(b1-6)]Man(a1-6)[Gal(b1-4)GlcNAc(b1-3)Gal(b1-4)GlcNAc(b1-2)Man(a1-3)]Man(b1-4)GlcNAc(b1-4)GlcNAc
Summary of the method: as §1

[7] = molecular target: Gal(b1-4)GlcNAc(b1-3)Gal(b1-4)GlcNAc(b1-2)[Gal(b1-4)GlcNAc(b1-3)Gal(b1-4)GlcNAc(b1-6)]Man(a1-6)[Gal(b1-4)GlcNAc(b1-3)Gal(b1-4)GlcNAc(b1-2)Man(a1-3)]Man(b1-4)GlcNAc(b1-4)[Fuc(a1-6)]GlcNAc
Summary of the method: as §1

[8] = molecular target: Gal(b1-4)GlcNAc(b1-3)Gal(b1-4)GlcNAc(b1-3)Gal(b1-4)GlcNAc
Summary of the method: as §1

[9] = molecular target: Gal(b1-4)GlcNAc(b1-3)Gal(b1-4)GlcNAc(b1-3)Gal(b1-4)GlcNAc(b1-2)Man(a1-3)[Gal(b1-4)GlcNAc(b1-3)Gal(b1-4)GlcNAc(b1-3)Gal(b1-4)GlcNAc(b1-2)Man(a1-6)]Man(b1-4)GlcNAc(b1-4)GlcNAc
Summary of the method: as §1

[10] = molecular target: Gal(b1-4)GlcNAc(b1-3)Gal(b1-4)GlcNAc(b1-3)Gal(b1-4)GlcNAc(b1-2)Man(a1-3)[Gal(b1-4)GlcNAc(b1-3)Gal(b1-4)GlcNAc(b1-3)Gal(b1-4)GlcNAc(b1-2)Man(a1-6)]Man(b1-4)GlcNAc(b1-4)[Fuc(a1-6)]GlcNAc
Summary of the method: as §1

[11] = molecular target: Gal(b1-4)GlcNAc(b1-3)Gal(b1-4)GlcNAc(b1-3)Gal(b1-4)GlcNAc(b1-2)[Gal(b1-4)GlcNAc(b1-3)Gal(b1-4)GlcNAc(b1-3)Gal(b1-4)GlcNAc(b1-6)]Man(a1-6)[Gal(b1-4)GlcNAc(b1-3)Gal(b1-4)GlcNAc(b1-3)Gal(b1-4)GlcNAc(b1-2)Man(a1-3)]Man(b1-4)GlcNAc(b1-4)[Fuc(a1-6)]GlcNAc
Summary of the method: as §1

[12] = molecular target: Gal(b1-4)GlcNAc(b1-3)Gal(b1-4)GlcNAc(b1-3)Gal(b1-4)GlcNAc(b1-3)Gal(b1-4)GlcNAc(b1-2)Man(a1-3)[Gal(b1-4)GlcNAc(b1-3)Gal(b1-4)GlcNAc(b1-3)Gal(b1-4)GlcNAc(b1-3)Gal(b1-4)GlcNAc(b1-2)Man(a1-6)]Man(b1-4)GlcNAc(b1-4)GlcNAc
Summary of the method: as §1

[13] = molecular target: Gal(b1-4)GlcNAc(b1-3)Gal(b1-4)GlcNAc(b1-3)Gal(b1-4)GlcNAc(b1-3)Gal(b1-4)GlcNAc(b1-2)Man(a1-3)[Gal(b1-4)GlcNAc(b1-3)Gal(b1-4)GlcNAc(b1-3)Gal(b1-4)GlcNAc(b1-3)Gal(b1-4)GlcNAc(b1-2)Man(a1-6)]Man(b1-4)GlcNAc(b1-4)[Fuc(a1-6)]GlcNAc
Summary of the method: as §1

[14] = molecular target: Gal(b1-4)GlcNAc(b1-3)Gal(b1-4)GlcNAc(b1-3)Gal(b1-4)GlcNAc(b1-3)Gal(b1-4)GlcNAc(b1-2)[Gal(b1-4)GlcNAc(b1-3)Gal(b1-4)GlcNAc(b1-3)Gal(b1-4)GlcNAc(b1-3)Gal(b1-4)GlcNAc(b1-6)]Man(a1-6)[Gal(b1-4)GlcNAc(b1-3)Gal(b1-4)GlcNAc(b1-3)Gal(b1-4)GlcNAc(b1-3)Gal(b1-4)GlcNAc(b1-2)Man(a1-3)]Man(b1-4)GlcNAc(b1-4)[Fuc(a1-6)]GlcNAc
Summary of the method: as §1

[15] = molecular target: Gal(b1-4)GlcNAc(b1-3)Gal(b1-4)GlcNAc(b1-3)Gal(b1-4)GlcNAc(b1-3)Gal(b1-4)GlcNAc(b1-3)Gal(b1-4)GlcNAc(b1-2)Man(a1-3)[Gal(b1-4)GlcNAc(b1-3)Gal(b1-4)GlcNAc(b1-3)Gal(b1-4)GlcNAc(b1-3)Gal(b1-4)GlcNAc(b1-3)Gal(b1-4)GlcNAc(b1-2)Man(a1-6)]Man(b1-4)GlcNAc(b1-4)GlcNAc
Summary of the method: as §1

[16] = molecular target: Gal(b1-4)GlcNAc(b1-3)Gal(b1-4)GlcNAc(b1-3)Gal(b1-4)GlcNAc(b1-3)Gal(b1-4)GlcNAc(b1-3)Gal(b1-4)GlcNAc(b1-2)Man(a1-3)[Gal(b1-4)GlcNAc(b1-3)Gal(b1-4)GlcNAc(b1-3)Gal(b1-4)GlcNAc(b1-3)Gal(b1-4)GlcNAc(b1-3)Gal(b1-4)GlcNAc(b1-2)Man(a1-6)]Man(b1-4)GlcNAc(b1-4)[Fuc(a1-6)]GlcNAc
Summary of the method: as §1

[17] = molecular target: Gal(b1-4)GlcNAc(b1-3)Gal(b1-4)GlcNAc(b1-3)Gal(b1-4)GlcNAc(b1-3)Gal(b1-4)GlcNAc(b1-3)Gal(b1-4)GlcNAc(b1-2)[Gal(b1-4)GlcNAc(b1-3)Gal(b1-4)GlcNAc(b1-3)Gal(b1-4)GlcNAc(b1-3)Gal(b1-4)GlcNAc(b1-3)Gal(b1-4)GlcNAc(b1-6)]Man(a1-6)[Gal(b1-4)GlcNAc(b1-3)Gal(b1-4)GlcNAc(b1-3)Gal(b1-4)GlcNAc(b1-3)Gal(b1-4)GlcNAc(b1-3)Gal(b1-4)GlcNAc(b1-2)Man(a1-3)]Man(b1-4)GlcNAc(b1-4)[Fuc(a1-6)]GlcNAc
Summary of the method: as §1

[18] = molecular target: Gal(b1-4)GlcNAc(b1-3)Gal(b1-4)GlcNAc(b1-3)Gal(b1-4)GlcNAc(b1-3)Gal(b1-4)GlcNAc(b1-3)Gal(b1-4)GlcNAc(b1-3)Gal(b1-4)GlcNAc(b1-2)Man(a1-3)[Gal(b1-4)GlcNAc(b1-3)Gal(b1-4)GlcNAc(b1-3)Gal(b1-4)GlcNAc(b1-3)Gal(b1-4)GlcNAc(b1-3)Gal(b1-4)GlcNAc(b1-3)Gal(b1-4)GlcNAc(b1-2)Man(a1-6)]Man(b1-4)GlcNAc(b1-4)GlcNAc
Summary of the method: as §1

[19] = molecular target: Gal(b1-4)GlcNAc(b1-3)Gal(b1-4)GlcNAc(b1-3)GalNAc
Summary of the method: as §1

B1: Epa21 (Candida glabrata) (protein)
chain: MGSSHHHHHHSSGLVPRGSHMASTPNIESHPQGCSPVDTSGIKPGLKMDLYRFPITPPGTGCWSWDWLTVTPDFPRSGYWKWPKIAEVDGVVGPLHLDSGHPTCDPLTSVLPHGFNYLQSITTTNFTMVLHGYFVPKQSGKYTFEFKADDALLLNLGAGNAFSCCDYNNSQYNQGEYLAYAIWSKNNQTATLYLEKGIYYPIRVFYHNRCCGAYMDVVYYFNDSPIPNRDFSGLLFSIPDSDSCDANI
glycan array binding signal (z-score) [1]: -0.579 | glycan array binding signal (z-score) [2]: -0.051 | glycan array binding signal (z-score) [3]: -0.605 | glycan array binding signal (z-score) [4]: 1.77 | glycan array binding signal (z-score) [5]: 0.079 | glycan array binding signal (z-score) [6]: 2.18 | glycan array binding signal (z-score) [7]: 0.542 | glycan array binding signal (z-score) [8]: -0.401 | glycan array binding signal (z-score) [9]: 2.55 | glycan array binding signal (z-score) [10]: 0.547 | glycan array binding signal (z-score) [11]: 1.26 | glycan array binding signal (z-score) [12]: 0.742 | glycan array binding signal (z-score) [13]: 1.27 | glycan array binding signal (z-score) [14]: 1.12 | glycan array binding signal (z-score) [15]: 0.995 | glycan array binding signal (z-score) [16]: 1.16 | glycan array binding signal (z-score) [17]: 1.77 | glycan array binding signal (z-score) [18]: -0.201 | glycan array binding signal (z-score) [19]: 0.441
